According to patent publication US11512108 (dated 2022):

Test: general procedure: solution-phase peptide synthesis; 1-(trimethylsilyl)imidazole, Ti(Oi-Pr)4 catalyst
Conditions: coupling step

## Boc-GGGAA-OtBu
  step yield: 99%

*: point of attachment. Boc = CC(C)(C)OC(=O)*; OtBu = CC(C)(C)O*
